From PubChem BioAssay AID1259415 (National Center for Advancing Translational Sciences (NCATS), 2018)
In all, about 410,000 compounds went through this assay and about 18,000 (4.4%) were called active. This list was built around the results that the source calls inconclusive (neither active nor inactive); the mix of calls is not that of the screen. Cut-off read from the data, not from the text of the source: active = activity change below about -60%; inconclusive = no clear call, values can overlap the other calls; inactive = above about -39%.
% is set by controls: 0 for no effect and ±100 for the full control effect.

Experiment: qHTS Assay for inhibitors of the human cytomegalovirus (HCMV)
Details: HFF cells, HCMV-luciferase reporter, 72 h; at 57.5 µM; hits give low values
In short: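 Luciferase read-out from HCMV-luciferase-infected HFFs (MOI 1 PFU/cell) 72 h post infection at 37C; compounds added after 16 h cell attachment; activity normalized between buffer-only basal and Salinomycin (10uM) inhibitor controls.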
For `Cn1cc(Br)c(C(=O)Nc2ncc(Br)s2)n1`, the activity change, negative = inhibition was inactive: 19.1%.
In the case of `Fc1ccc(-c2nc3c(-c4ccc(Cl)cc4)cnn3cc2CCN2CCOCC2)cc1`, the activity change, negative = inhibition is reported as inconclusive: -59.6%.
With `NNC(=O)COc1cccc2cccnc12` the activity change, negative = inhibition was inactive: 9.15%.
With `Clc1ccc(C2=NNC(=NCc3ccc4c(c3)OCO4)SC2)cc1` the activity change, negative = inhibition was inconclusive: -59.6%.
With `Nc1cc(N)nc(SCC(=O)NNC(=O)Cc2ccccc2)n1` the activity change, negative = inhibition was inactive: 36.2%.
In the case of `COc1cccc(NC(=O)CCCn2c(=S)[nH]c3ccccc3c2=O)c1`, the activity change, negative = inhibition is reported as inconclusive: -50.1%.
In the case of `Cc1ccc(-c2cc(-c3ccco3)c3c(N)c(C(=O)NN)oc3n2)cc1`, the activity change, negative = inhibition is reported as inactive: -34.6%.
For `COc1ccc(OCC(=O)Nc2c(C(=O)N3CCN(C)CC3)oc3ccccc23)cc1`, the activity change, negative = inhibition was inactive: -20.9%.
With `COC(=O)c1ccccc1OCCCN(C)C` the activity change, negative = inhibition was inconclusive: -44.1%.
For `CN(/N=C/c1ccc2c(c1)OCO2)c1ccccc1`, the activity change, negative = inhibition was inconclusive: -53.7%.
In the case of `CCc1ccc(NC(=O)[C@H](C)NC(=O)C2CCN(C(=O)[C@@H](NC(=O)OC(C)(C)C)C(C)C)CC2)cc1`, the activity change, negative = inhibition is reported as active: -70.7%.
In the case of `CC(C)Oc1ccc(S(=O)(=O)N2CCOCC2)cc1NC(=O)Cc1cccs1`, the activity change, negative = inhibition is reported as inactive: -16.4%.
With `Cc1ccc(NC(=O)c2ccccc2F)c(NC(=O)c2ccccc2F)c1` the activity change, negative = inhibition was inactive: 66.3%.
With `CC(=O)c1c(C)[nH]c(C(=O)Nc2ccc(Cl)c(S(=O)(=O)N3CCOCC3)c2)c1C` the activity change, negative = inhibition was inactive: 93.8%.
In the case of `O=C(c1ccccc1O)N1N=C(C(F)(F)F)CC1(O)c1ccc([N+](=O)[O-])cc1` (configuration not stated), the activity change, negative = inhibition is reported as active: -102%.
For `COc1ccc(-c2n[nH]c(=S)n2-c2ccc3c(c2)OCCO3)cc1`, the activity change, negative = inhibition was inactive: 9.59%.
For `c1ccc2c(c1)nc(N1CCOCC1)c1nnnn12`, the activity change, negative = inhibition was inactive: 15.2%.
With `O=C(COC(=O)CNS(=O)(=O)/C=C/c1ccccc1)Nc1cc(S(=O)(=O)N2CCCCC2)ccc1Cl` the activity change, negative = inhibition was inconclusive: -42.6%.
For `CC(=O)N(Cc1cccnc1)c1nc2c(C)cc(C)cc2s1`, the activity change, negative = inhibition was inconclusive: 0%.
In the case of `Cn1cccc1C(=O)OCc1ccc(F)cc1`, the activity change, negative = inhibition is reported as active: -74.9%.
For `O=C(Nc1ccccc1)c1cc(Cl)nc2ccccc12`, the activity change, negative = inhibition was inconclusive: -50.1%.
For `CCOC(=O)C1=C(N)Oc2ccc3ccccc3c2C1c1ccc(O)c(OC)c1` (configuration not stated), the activity change, negative = inhibition was inconclusive: -57.8%.
For `CCCCn1c(N)c(N(CC(C)C)C(=O)c2ccc(S(=O)(=O)N3CCCCCC3)cc2)c(=O)[nH]c1=O`, the activity change, negative = inhibition was inconclusive: -42%.
In the case of `CC(NC(=O)OCc1ccccc1)C(=O)Oc1cc2oc(=O)cc(-c3ccccc3)c2cc1Cl` (configuration not stated), the activity change, negative = inhibition is reported as active: -93.8%.
With `O=C(Nc1ccccn1)c1cc2ccccc2o1` the activity change, negative = inhibition was inactive: -3.88%.
For `Cc1cc(C)n(-c2nc3cc(Cl)c(Cl)cc3nc2Nc2ccc(F)cc2C)n1`, the activity change, negative = inhibition was inactive: 11.8%.
With `COc1cc(NC(=O)c2ccccc2[N+](=O)[O-])ccc1NC(=O)C(C)C` the activity change, negative = inhibition was inactive: -19.5%.
For `COC(=O)CN1C(=O)Nc2ccc(Br)cc2C1c1ccccc1` (configuration not stated), the activity change, negative = inhibition was inactive: 47%.
For `Cc1ccc(C)c(S(=O)(=O)NCCC(=O)N2CCCC(C(N)=O)C2)c1` (configuration not stated), the activity change, negative = inhibition was active: -82.7%.
In the case of `Cc1ccc(C)c(N2CCN(C(=O)c3cc4c(=O)n(Cc5cccnc5)ccc4nc3C)CC2)c1`, the activity change, negative = inhibition is reported as inactive: -7.18%.
With `Cc1cccc(CS(=O)(=O)c2ncc(Cl)c(C(=O)Nc3ccc(F)cc3)n2)c1` the activity change, negative = inhibition was active: -110%.
In the case of `CN1C/C(=C\c2ccc(N3CCOCC3)cc2)C(=O)/C(=C/c2ccc(N3CCOCC3)cc2)C1`, the activity change, negative = inhibition is reported as inconclusive: -58.4%.
For `Cc1cccc(NC(=O)CSCC(=O)Nc2cc(Cl)ccc2N2CCOCC2)c1`, the activity change, negative = inhibition was inconclusive: -48.1%.
For `Cc1cccc(CSc2nc3cccnc3n2Cc2ccc(C(=O)NCc3cccs3)cc2)c1`, the activity change, negative = inhibition was inconclusive: -45.9%.
With `CCCCCCCCCCn1c2c(c(=N)c3c1CCC3)CCC2` the activity change, negative = inhibition was active: -97.5%.
For `O=C(CSc1oc(-c2ccccc2)nc1S(=O)(=O)c1ccc(Br)cc1)NC1CCCCC1`, the activity change, negative = inhibition was inactive: 14%.
With `CC1(C)C(=O)Nc2ccccc2N1C(=O)COc1cc(Cl)ccc1Cl` the activity change, negative = inhibition was inactive: 4.67%.
In the case of `CC(C)Cn1c(=O)c2sccc2n2c(CCCC(=O)NCC(C)c3ccccc3)nnc12` (configuration not stated), the activity change, negative = inhibition is reported as inconclusive: -44.1%.
With `COc1ccc2c(c1)CCC[C@]1(C)C[C@@H]1C(=O)c1ccccc1O2` the activity change, negative = inhibition was inconclusive: -41.8%.
In the case of `N/C(=N\OC(=O)Cc1ccccc1)c1cccc(Br)c1`, the activity change, negative = inhibition is reported as inconclusive: -44.1%.
For `Clc1ccc(CSc2nnc([C@@H]3CCCN3)o2)cc1`, the activity change, negative = inhibition was inconclusive: -40.2%.
With `O=C(Nc1ccc(F)cc1)Nc1nnc(COc2ccccc2F)s1` the activity change, negative = inhibition was inconclusive: -56.7%.
With `COc1nc(N)nc(NC(=O)c2cccs2)c1N=O` the activity change, negative = inhibition was active: -77.6%.
With `OC(c1ccc(F)cc1)c1nc(-c2ccc(F)c(Cl)c2)cs1` (configuration not stated) the activity change, negative = inhibition was inconclusive: -55.3%.
For `O=C(COc1cccc(F)c1)Nc1nc(-c2cccnc2)cs1`, the activity change, negative = inhibition was inactive: -6.89%.
For `COCCNC(=O)Cn1c(=O)n(Cc2ccc(C(=O)NCCc3ccc(OC)c(OC)c3)cc2)c(=O)c2ccccc21`, the activity change, negative = inhibition was inconclusive: -55.7%.
In the case of `O=C(CSc1nc2ccccc2nc1Cc1ccc(F)cc1)Nc1ccc2c(c1)OCO2`, the activity change, negative = inhibition is reported as inconclusive: -41.5%.
For `COC(=O)C(Nc1ccccc1Cl)(c1cc(C)c(O)c(C)c1)C(F)(F)F` (configuration not stated), the activity change, negative = inhibition was active: -77.6%.
For `NS(=O)(=O)c1ccc(NC(=O)COc2ccc(Cl)cc2)cc1`, the activity change, negative = inhibition was inactive: -36.4%.
For `CC(=O)c1cccc(Nc2c3c(nc4ccccc24)CCC3)c1`, the activity change, negative = inhibition was inactive: 66.4%.
With `C=C(C(=O)c1ccccc1)C(CC(=O)c1ccccc1)c1ccccc1` (configuration not stated) the activity change, negative = inhibition was active: -101%.
For `CC(=O)Nc1c(O)nc(SCC(=O)N2CCCCC2)[nH]c1=O`, the activity change, negative = inhibition was inconclusive: -44.8%.
With `CC(=O)c1ccc(S(=O)(=O)N2CCN(CCOc3ccccc3)CC2)cc1` the activity change, negative = inhibition was inconclusive: -50.3%.
With `COc1ccc(-n2ncc3c(N(C)C4CCCCC4)ncnc32)cc1` the activity change, negative = inhibition was active: -88.2%.
In the case of `CCN1CCN(C(=O)c2ccc3c(=O)n(CCC4=CCCCC4)c(=O)[nH]c3c2)CC1`, the activity change, negative = inhibition is reported as inconclusive: -57.1%.
With `CCN1CCc2nc(N)sc2C1` the activity change, negative = inhibition was inconclusive: -40.6%.
In the case of `Cc1cc(C)c2c(n1)SCC(=O)N2CC(=O)Nc1ccc(F)cc1`, the activity change, negative = inhibition is reported as inactive: 1.84%.
